In PubChem BioAssay AID288 (DTP/NCI, 2004) one finds T/C and survivor count data, which are given here for 2 compounds.

The assay relates to BDF1 mice, M5076 sarcoma s.c., survival/tumor T/C. Put plainly: NCI In Vivo Anticancer Drug Screen. Data for tumor model Sarcoma M5076 (subcutaneous) in B6D2F1 (BDF1) mice. The note with it: schedule: Q02DX011 (ip), vehicle: Klucel (hydroxypropylcellulose) (HPC), higher T/C = larger tumour; for T/C: evaluated on day 22. The procedure: The antitumor activity of compounds was measured in mice bearing transplantable tumors. Survival or tumor size were measured and the results are expressed as the measurement made in the treated group (T) divided by the measurement made in the vehicle treated control group (C). The tumor model used in this assay is Sarcoma M5076 (subcutaneous) in B6D2F1 (BDF1) mice

[1] abbreviates: T/C endpoint: mean tumor weight, dose: 50.0 mg/kg/injection.

The list shows only some results of the screen, not a fair sample: it covers a few groups of compounds. Not every dose and run of a compound is shown. T/C gives the treated animals as a percentage of the vehicle group. Schedule codes are those of the source, taken here to give the interval after Q, in days (D) or hours (H), and the number of doses after X. Some T/C values carry the count of animals alive at the toxicity check; without a count or a note in brackets, all were alive then. Some doses have a count of surviving animals in place of a T/C: the source files T/C as zero there, which appears to mark a toxic dose or a test without result, not a measured value. Counts of survivors are from the toxicity check, whose day is not always given; animals may have died later.

With `NC(=O)c1[nH]cnc1/N=N\N(CCCl)CCCl`, the T/C (T/C endpoint: mean tumor weight, dose: 12.5 mg/kg/injection) was 55 % of control [9 of 10 alive on day 22]; the T/C (T/C endpoint: mean tumor weight, dose: 25.0 mg/kg/injection) is 46 % of control; the T/C under setting [1] is 3 % of control; the T/C (T/C endpoint: median tumor weight (est.), dose: 12.5 mg/kg/injection) was 80 % of control [9 of 10 alive on day 22]; the T/C (T/C endpoint: median tumor weight (est.), dose: 25.0 mg/kg/injection) is 54 % of control.

For `COc1cc2c(c3oc4cccc(O)c4c(=O)c13)[C@@H]1C=CO[C@@H]1O2`, the T/C under setting [1] was 86 % of control and the T/C (T/C endpoint: mean tumor weight, dose: 100.0 mg/kg/injection) is 26 % of control. Also, where the note is “T/C endpoint: mean tumor weight, dose: 200.0 mg/kg/injection”, the survivor count was 0 of 10 on day 22.
